Source: PubChem BioAssay AID493014 (National Center for Advancing Translational Sciences (NCATS), 2011)
Screen size: about 340,000 compounds; about 170 (0.05%) were called active. This list was built around the results that the source calls inconclusive (neither active nor inactive); the mix of calls is not that of the screen. Calls follow the shape of the dose curve; as a rule, active = well fitted inhibition curve with a large enough effect in the signal ratio, with a control signal flat (not every such curve was filed as active); inconclusive = small, poorly fitted or top-dose-only effect, or effect the other way, or a change in a side signal; inactive = flat fitted curve, though single readings scatter; the % refers to the signal ratio. A potency beside an inconclusive call is a rough fit, not a confirmed value.

Experiment: qHTS Assay to Find Inhibitors of Chronic Active B-Cell Receptor Signaling;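 as to activity change, negative = inhibition: plate controls were basal doxycycline-induced cells for no effect and cells given 10 µM MG132 for full effect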
Details: ABC-DLBCL IkBa-CBG/CBR reporter, luminescence ratio (green luciferase fused to IkBa over red control in TMD8 lymphoma cells), 4 h; activity change, negative = inhibition: at 46.1 µM (top of the series)
Summary of the method: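 Doxycycline induced both beetle luciferases in TMD8 lymphoma cells; IKK-driven degradation limits the IkappaBalpha-fused green signal, while red luminescence normalises for cell number and nonspecific effects. Compounds tested up to 46 uM, 4 hrs.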
Potency is read from the fitted curve at half-maximal effect.

Compound	Potency	activity change, negative = inhibition
COc1cccc(-c2ncc3ccccc3c2COC(=O)c2ccc(C(F)(F)F)cc2)c1	inconclusive: 18.4 µM [falling, partial curve]	
COc1ccc(C(=O)NCc2ccc(-c3nc4ccccc4s3)cc2)cc1OC		inconclusive: 11.7%
Cc1nc2ccccc2c2c1CC(C)S2 (stereo unspecified)		inconclusive: 8.24%
O=c1[nH]c(-c2cccnc2)nc2sc(-c3ccccc3)cc12	inconclusive: 3.98 µM [falling, partial curve]	
CCS(=O)(=O)N1CCCC(C(=O)NCc2cccc(OC)c2)C1 (stereo unspecified)		inconclusive: 2.51%
COc1ccc(CN(C)Cc2c(O)ccc3cc(Br)ccc23)cc1OC		inconclusive: -16.4%
Cc1ccc(S(=O)(=O)Nc2cccc3cccnc23)c([N+](=O)[O-])c1	inconclusive: 6.31 µM [falling, partial curve]	
CC1(C)C2([N+](=O)[O-])CN3CC1([N+](=O)[O-])CN(C2)C3c1ccccc1 (stereo unspecified)		inactive: 1.54%
Cc1ccc(S(=O)(=O)NCC(=O)OCC(=O)c2ccc(Br)s2)cc1	inconclusive: 2.59 µM [falling, full curve]	
CCOC(=O)c1cc(-c2ccccc2C)n(CC2CC(c3ccc(OC)cc3)=NO2)n1 (stereo unspecified)		inconclusive: -9.59%
Cc1cccc(N2CC(C(=O)Nc3ccc4c(c3)OCCO4)CC2=O)c1C (stereo unspecified)	inconclusive: 17.8 µM [falling, partial curve, poor fit]	
CN(CCOCCOc1ccc(Cl)cc1Br)Cc1ccccc1		inactive: 0.588%
O=C(Nc1nnc(C2=COCCO2)o1)c1cccc(C(F)(F)F)c1		inconclusive: 8.27%
O=C(NC(=O)c1ccccc1O)c1ccc2c(c1)CCO2	inconclusive: 5.62 µM [rising, single point]	
CCN(c1ccccc1)S(=O)(=O)c1ccc2[nH]cc(C(=O)NC3CCCCC3)c(=O)c2c1		inconclusive: 29.4%
N#C/C(=C\c1ccccn1)c1ccccn1		inconclusive: -28%
Cc1sc2nc(SCC(=O)NCc3ccco3)n(CCc3ccccc3)c(=O)c2c1C		inconclusive: 6.64%
CCCCCn1cnc2sc(-c3ccccc3)cc2c1=O		inconclusive: 13%
C=Cc1ccc(Cn2c(=O)n(C)c(=O)c3sccc32)cc1	inconclusive: 31.6 µM [falling, partial curve, poor fit]	
COc1cc(C(=O)Nc2nccs2)cc(OC)c1OC		inconclusive: -2.94%
CCOc1ccc(Br)cc1S(=O)(=O)Nc1ccc(NC(=O)c2ccccc2F)cc1		inconclusive: -2.15%
Cc1noc(C)c1C(=O)NCCc1ccc(Cl)cc1		inconclusive: -0.663%
Cc1c(C(=O)OCC(=O)NCCc2ccc(S(N)(=O)=O)cc2)oc2ccccc12		inconclusive: -0.487%
CCCn1nnnc1SCC(=O)N1CCCc2ccccc21		inconclusive: 0.833%
COc1ccccc1-c1cc(C(=O)NCc2cccs2)no1		inconclusive: 182%
CC(=O)c1cc(C(=O)c2ccccc2)sc1Nc1ccccc1	inconclusive: 16.4 µM [falling, partial curve, poor fit]	

Compound	Potency	activity change, negative = inhibition
CC(C)(C)OC(=O)C[C@@H]1C/C=C\C[C@@H](CC(=O)NCCO)C(=O)NC[C@@H](c2ccccc2)OC1=O		inactive: 2.01%
COc1ccc(N(Cc2cc3cc(OC)ccc3[nH]c2=O)C(=O)c2cccnc2)cc1		inactive: -3.34%
COc1ccc(C(=O)N(Cc2nc(-c3ccc(C)cc3)no2)C(C)C)cc1OC		inconclusive: 8.39%
Oc1c(C(c2ccccc2F)N2CCOCC2)sc2nc(-c3ccco3)nn12 (stereo unspecified)	inconclusive: 0.631 µM [falling, full curve, poor fit]	
COc1ccc(C2(O)CCN(Cc3nnnn3Cc3ccc(C)cc3)CC2)cc1		inactive: -16.4%
CC1(C)OC(=O)C(C(c2ccccc2)C(C#N)C(N)=O)=C(O)O1 (stereo unspecified)		inconclusive: 0.569%
COc1ccc(OCC(=O)Nc2ccc(NC(=O)c3ccccc3Cl)c(OC)c2)cc1		inactive: -4.6%
CC(NC(=O)c1ccccc1)C(=O)N/N=C/c1ccc(O)cc1 (stereo unspecified)	inconclusive: 31.6 µM [falling, single point]	
CC1CCc2c(sc3ncn(CC(=O)N=Nc4c(O)[nH]c5ccccc45)c(=O)c23)C1 (stereo unspecified)		inactive: -1.05%
CN(C)S(=O)(=O)c1cc(NC(=O)[C@H](Cc2ccccc2)N2C(=O)c3ccccc3C2=O)ccc1Cl		inconclusive: 0.558%
C=CCON1C(=O)c2ccccc2C1=O		inconclusive: -15.2%
Cc1sc(NC(=O)CN2CCCC2)nc1-c1ccc2c(c1)CCN2C(=O)c1cccc(F)c1		inconclusive: 0%
COC(=O)c1cc(C(=O)OCC(=O)c2ccc3c(c2)NC(=O)CO3)cc([N+](=O)[O-])c1		inactive: 1.57%
COc1ccc(-c2cc(C(=O)N3CCN(c4ccccc4)CC3)no2)cc1OC	inconclusive: 29.1 µM [falling, single point]	
COc1ccccc1-c1nnc2sc(-c3cnccn3)nn12		inconclusive: -19.3%
Cc1cccc(C(=O)N2CCc3cc(CNC(=O)c4ccnn4C)ccc32)c1	inconclusive: 5.01 µM [falling, partial curve, poor fit]	
O=[N+]([O-])c1ccc2nc(/C=C/c3ccc(Cl)cc3)[nH]c2c1		inactive: -2.86%
O=C(Oc1ccccc1C(=O)Nc1ccccc1)c1ccccc1Br	inconclusive: 16.4 µM [cytotoxic, partial curve]	
Cc1noc(C)c1CSc1nc2sc(C)c(C)c2c(=O)n1C1CCCC1		inconclusive: 5.34%
O=c1c(Cc2ccc(Cl)cc2)c(O)ccn1Cc1cccs1		inactive: -3.71%
COc1ccc(OCC(=O)Nc2cccc3cccnc23)cc1		inactive: -2.4%
CCOC(=O)c1c(NC(=O)COC(=O)CCNS(=O)(=O)c2ccccc2)sc(C(=O)N(C)C)c1C		inconclusive: 8.75%
O=C(Nc1nnc(-c2ccccc2)s1)c1ccccc1F	inconclusive: 6.31 µM [rising, single point]	
COc1ccc(OC)c(/C=C/C(=O)c2ccc(Cl)cc2)c1		inconclusive: -26.6%
O=C(COc1ccc2ccccc2c1)NNC(=O)c1ccc([N+](=O)[O-])cc1		inconclusive: 20.3%

12 compounds out of the list, ordered by SMILES length, falling.
Compound	Potency	activity change, negative = inhibition
CC(C)(C)OC(=O)C[C@@H]1C/C=C\C[C@@H](CC(=O)NCCO)C(=O)NC[C@@H](c2ccccc2)OC1=O		inactive: 2.01%
CCOC(=O)c1c(NC(=O)COC(=O)CCNS(=O)(=O)c2ccccc2)sc(C(=O)N(C)C)c1C		inconclusive: 8.75%
CC1CCc2c(sc3ncn(CC(=O)N=Nc4c(O)[nH]c5ccccc45)c(=O)c23)C1 (stereo unspecified)		inactive: -1.05%
O=C(COc1ccc2ccccc2c1)NNC(=O)c1ccc([N+](=O)[O-])cc1		inconclusive: 20.3%
COc1ccc(-c2cc(C(=O)N3CCN(c4ccccc4)CC3)no2)cc1OC	inconclusive: 29.1 µM [falling, single point]	
Cc1cccc(C(=O)N2CCc3cc(CNC(=O)c4ccnn4C)ccc32)c1	inconclusive: 5.01 µM [falling, partial curve, poor fit]	
COc1ccc(C2(O)CCN(Cc3nnnn3Cc3ccc(C)cc3)CC2)cc1		inactive: -16.4%
CC(NC(=O)c1ccccc1)C(=O)N/N=C/c1ccc(O)cc1 (stereo unspecified)	inconclusive: 31.6 µM [falling, single point]	
O=c1c(Cc2ccc(Cl)cc2)c(O)ccn1Cc1cccs1		inactive: -3.71%
COc1ccc(OCC(=O)Nc2cccc3cccnc23)cc1		inactive: -2.4%
O=C(Nc1nnc(-c2ccccc2)s1)c1ccccc1F	inconclusive: 6.31 µM [rising, single point]	
C=CCON1C(=O)c2ccccc2C1=O		inconclusive: -15.2%
